Test results: patent US9718869B2 (MANUS PHARMACEUTICALS (CANADA) LTD., priority 2012, dated 2017)

Assay: general procedure: Fmoc solid-phase peptide synthesis; Wang resin, 0.37 mmol/g
Conditions: whole synthesis, scale of the general procedure 100 mg Wang polymer

| Substance | final HPLC purity (UV 220 nm) | final HPLC purity (UV 226 nm) |
| --- | --- | --- |
| (FR-3-NP-1)2-Lys-OH | >80% |  |
| (R-2-FR-3-NP-1)2-Lys-OH (WSERFYECCKE; dimer on Lys-OH, cyclo(Ala-Glu) moieties; printed: Trp-Ser-Glu-Arg-Phe-Tyr-Glu-Cys-Cys-Lys-Glu) | >80% |  |
| cyclo(Ala-Glu)-Trp-(Glu-Trp-Asp-Leu-Val-Gly-Ile-Pro-Gly-Lys-Arg-Ser-Glu-Arg-Phe-Tyr-Cys-Cys-Lys-Glu) (EWDLVGIPGKRSERFYCCKE; cyclo(Ala-Glu)-Trp N-terminal cyclic moiety; printed: Glu-Trp-Asp-Leu-Val-Gly-Ile-Pro-Gly-Lys-Arg-Ser-Glu-Arg-Phe-Tyr-Cys-Cys-Lys-Glu) |  | 98% |
